In US11458141B2, “Aryl hydrocarbon receptor (AhR) agonists for the prevention and treatment of inflammatory disorders” (The Johns Hopkins University, priority 2017, dated 2022):
At least one compound was matched to its structure with a doubt left.

Key:
[1] = tested on: mice with NEC; assay: mRNA of proinflammatory cytokines and NEC markers in ileum of mice with experimental NEC, qPCR; type: in vivo, mouse; conditions: vs vehicle-treated group
Method: (§1) Necrotizing enterocolitis (NEC) was induced in 7-day-old mouse pups by gavage feeding and hypoxia exposure for 4 days in presence of abacavir, lansoprazole, tranilast and raberprazole. The ileum was harvested at the end of the experiment and the mRNA expression of target genes was analyzed by qPCR.
Referring now to FIG. 2, the mRNA expression of pro-inflammatory cytokine tumor necrosis factor alpha (Tnf) was quantified in the ileum of experimental NEC models. Data are represented as mean±SEM; *p<0.05 between indicated groups; each dot represents an individual mouse.
Referring now to FIG. 3, the mRNA expression of pro-inflammatory Interleukin-6 (IL-6) was quantified in the ileum of experimental NEC models. Data are represented as mean±SEM; *p<0.05 between indicated groups; each dot represents an individual mouse.
Referring now to FIG. 4, the mRNA expression of NEC marker S100 calcium binding protein A8 (S100a8) was quantified in the ileum of experimental NEC models. Data are represented as mean±SEM; *p<0.05 between indicated groups; each dot represents an individual mouse.
Referring now to FIG. 5, the mRNA expression of NEC marker lipocalin 2 (Lcn2) was quantified in the ileum of experimental NEC models. Data are represented as mean±SEM; *p<0.05 between indicated groups; each dot represents an individual mouse.
Referring now to FIG. 6, the mRNA expression of NEC marker intestinal fatty acid-binding protein (iFabp) was quantified in the ileum of experimental NEC models. Data are represented as mean±SEM; *p<0.05 between indicated groups; each dot represents an individual mouse.

[2] = tested on: aryl hydrocarbon receptor (AHR) signaling; assay: Cypla1 mRNA (AHR signaling) in ileum of mice with experimental NEC, qPCR; type: in vivo, mouse; conditions: 4 days, vs vehicle
Method: as §1
Referring now to FIG. 1, the mRNA expression of Cypla1, the down-stream gene of aryl hydrocarbon receptor (AHR) signaling, was quantified in the ileum of experimental NEC models. Data are represented as mean±SEM; *p<0.05 between indicated groups; each dot represents an individual mouse.

Q: What does the source list for `COc1ccc(/C=C/C(=O)Nc2ccccc2C(=O)O)cc1OC` [tranilast]?
A: mRNA expression of Interleukin-6 (IL-6) [1]: significantly attenuated IL-6 expression; mRNA expression of NEC marker S100a8 [1]: significantly attenuated S100a8 expression; mRNA expression of NEC marker iFabp [1]: significantly attenuated iFabp expression; mRNA expression of NEC marker lipocalin 2 (Lcn2) [1]: significantly attenuated Lcn2 expression; mRNA expression of tumor necrosis factor alpha (Tnf) [1]: significantly attenuated Tnf expression; mRNA expression of Cypla1, the down-stream gene of AHR signaling [2]: but not tranilast nor raberprazole, activated AHR signaling pathway
